For some assays here: At least one result comes from cells or an extract, where the contact may be indirect. For some assays here: Protein sequences can lack the tags named with them. For some assays here: The exact form of at least one protein or probe is not confirmed.
Tests used:
[1] = system: endogenous NF-kB complexes; experiment: EMSA; settings: 20 mM HEPES pH 7.9, 100 mM KCl, polydI-dC; protein in an extract; label: 32P
[2] = molecular target: T1, NF-kB p50 (p50/p50 homodimer) (UniProt P19838); experiment: EMSA; settings: supershifted by anti-p50, protein in a lysate after overexpression, protein details: pMT2T-p50 transfected NTera-2 whole cell extract, label: 32P
T1 sequence (looked up, limits assumed): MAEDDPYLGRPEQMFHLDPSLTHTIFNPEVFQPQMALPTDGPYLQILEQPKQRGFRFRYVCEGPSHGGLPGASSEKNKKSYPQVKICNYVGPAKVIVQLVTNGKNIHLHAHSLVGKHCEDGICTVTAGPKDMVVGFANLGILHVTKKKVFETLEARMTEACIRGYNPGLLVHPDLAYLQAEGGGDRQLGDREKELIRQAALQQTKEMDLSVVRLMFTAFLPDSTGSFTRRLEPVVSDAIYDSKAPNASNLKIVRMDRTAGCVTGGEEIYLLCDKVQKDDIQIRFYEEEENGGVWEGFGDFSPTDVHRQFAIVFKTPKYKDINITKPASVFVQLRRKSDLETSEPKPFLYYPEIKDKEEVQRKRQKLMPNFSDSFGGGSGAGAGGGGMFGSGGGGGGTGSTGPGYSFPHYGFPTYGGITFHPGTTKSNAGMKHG

Chains of the proteins cited; added tags and fusions are not shown.
UniProt Q04206, whole entry: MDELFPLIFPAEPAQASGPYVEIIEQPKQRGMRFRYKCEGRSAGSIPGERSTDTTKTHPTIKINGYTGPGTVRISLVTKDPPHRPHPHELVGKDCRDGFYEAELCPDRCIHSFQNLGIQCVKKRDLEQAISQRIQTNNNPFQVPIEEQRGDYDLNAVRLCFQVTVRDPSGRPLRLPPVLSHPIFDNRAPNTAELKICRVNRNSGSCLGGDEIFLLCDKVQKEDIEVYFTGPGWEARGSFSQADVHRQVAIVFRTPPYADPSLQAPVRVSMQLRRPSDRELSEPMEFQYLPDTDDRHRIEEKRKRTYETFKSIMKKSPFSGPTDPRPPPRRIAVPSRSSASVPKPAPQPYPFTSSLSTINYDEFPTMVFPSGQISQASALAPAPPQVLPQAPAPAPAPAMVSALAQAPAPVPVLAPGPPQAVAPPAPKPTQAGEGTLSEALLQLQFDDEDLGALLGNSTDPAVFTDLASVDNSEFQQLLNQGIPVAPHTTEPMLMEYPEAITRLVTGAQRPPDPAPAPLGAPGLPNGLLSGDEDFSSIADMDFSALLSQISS

[3] = system: NF-kB p50/RelA heterodimer; experiment: EMSA; settings: supershifted by anti-p50 and anti-RelA, protein in a lysate after overexpression, label: 32P
RelA (p65) = RelA (p65) (Homo sapiens?) (UniProt Q04206); experiment: activity in cells; settings: delta56-CAT reporter, protein in cells, protein details: pMT2T-RelA in NTera-2 cells

“GGGGATTCCA (double strand) [gadd45b kB-2 site]”: binds [1]; binds ([2]; strongest signal with p50 homodimer); binds ([3]; stronger than kB-1).
“GGAAACCCCG (double strand) [gadd45b kB-3 site]”: binds [1]; binds ([2]; poorest of three sites with p50 homodimer); binds ([3]; stronger than kB-1).
For “GATCTCTAGGGACTCTCCGGGGACAGCGAGGGGATTCCAGACC (double strand) [kB-1/2 reporter oligonucleotide]”, the “activity on this sequence” value (RelA (p65); induced more than kB-3) was “active”.
“TAGGGACTCTCC (double strand) [gadd45b kB-1 site]”: binds [1]; binds ([2]; intermediate signal between kB-2 and kB-3); binds ([3]; weaker signal than kB-2 and kB-3).
In the case of “GATCTGAATTCGCTGGAAACCCCGCAC (double strand) [kB-3 reporter oligonucleotide]”, the “activity on this sequence” value (RelA (p65); strongly RelA responsive) is reported as “active”.
